# Reference: patent publication US9365577B2, “Pyrimidinone compounds as human neutrophil elastase inhibitors” (CHIESI FARMACEUTICI S.p.A., priority 2012, dated 2016)
# pIC50: −log10 of the molar value. Where a name gives a salt, the structure may show the parent alone. Some results were stated once for a whole list of compounds, not compound by compound.
# Biological target: T1, human neutrophil elastase (HNE) (Homo sapiens, UniProt P08246)
# T1 construct: purchased Sigma E8140
# T1 sequence (P08246 30-267): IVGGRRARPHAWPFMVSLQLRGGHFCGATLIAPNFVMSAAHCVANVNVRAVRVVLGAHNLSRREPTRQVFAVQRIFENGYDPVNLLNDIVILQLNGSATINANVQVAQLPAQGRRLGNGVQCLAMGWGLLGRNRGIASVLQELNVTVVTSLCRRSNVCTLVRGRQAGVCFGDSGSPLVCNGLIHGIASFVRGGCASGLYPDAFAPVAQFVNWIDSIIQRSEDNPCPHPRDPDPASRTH
# Assay: HNE enzyme assay
# Format: biochemical
# Conditions: human leukocyte elastase, substrate MeOSuc-Ala-Ala-Pro-Val-AMC, 25° C. for 30 minutes, fluorescence; at least two separate experiments; read-out: HNE inhibition
row,Compound,pIC50
1,"CC[N+](C)(C)CCc1cc(C#N)ccc1[C@@H]1C(C(=O)OC)=C(C)N(c2cccc(C(F)(F)F)c2)c2n[nH]c(=O)n21 [Example 78, (2-{5-Cyano-2-[(R)-6-methoxycarbonyl-7-methyl-3-oxo-8-(3-trifluoromethyl-phenyl)-2,3,5,8-tetrahydro-[1,2,4]triazolo[4,3-a]pyrimidin-5-yl]-phenyl}-ethyl)-ethyl-dimethyl-ammonium format]",> 7.70
2,"COC(=O)C1=C(C)N(c2cccc(C(F)(F)F)c2)c2n[nH]c(=O)n2[C@@H]1c1ccc(C#N)cc1CC[N+](C)(C)Cc1ccccc1 [Example 79, Benzyl-(2-{5-cyano-2-[(R)-6-methoxy-carbonyl-7-methyl-3-oxo-8-(3-trifluoromethyl-phenyl)-2,3,5,8-tetrahydro-[1,2,4]triazolo[4,3-a]pyrimidin-5-yl]-phenyl}-ethyl)-dimethyl-ammonium forma]",> 7.70
3,"COC(=O)C1=C(C)N(c2cccc(C(F)(F)F)c2)c2n[nH]c(=O)n2[C@@H]1c1ccc(C#N)cc1CC[N+](C)(C)CC1CCCCC1 [Example 80, (2-{5-Cyano-2-[(R)-6-methoxycarbonyl-7-methyl-3-oxo-8-(3-trifluoromethyl-phenyl)-2,3,5,8-tetrahydro-[1,2,4]triazolo[4,3-a]pyrimidin-5-yl]-phenyl}-ethyl)-cyclohexylmethyl-dimethyl-ammonium formate]",> 7.70
4,"COC(=O)C1=C(C)N(c2cccc(C(F)(F)F)c2)c2n[nH]c(=O)n2[C@@H]1c1ccc(C#N)cc1CC[N+](C)(C)CCCO [Example 81, (2-{5-Cyano-2-[(R)-6-methoxycarbonyl-7-methyl-3-oxo-8-(3-trifluoromethyl-phenyl)-2,3,5,8-tetrahydro-[1,2,4]triazolo[4,3-a]pyrimidin-5-yl]-phenyl}-ethyl)-(3-hydroxy-propyl)-dimethyl-ammonium formate]",> 7.70
5,"CC[N+](C)(CC)CCc1cc(C#N)ccc1[C@@H]1C(C(=O)OC)=C(C)N(c2cccc(C(F)(F)F)c2)c2n[nH]c(=O)n21 [Example 82, (2-{5-Cyano-2-[(R)-6-methoxycarbonyl-7-methyl-3-oxo-8-(3-trifluoromethyl-phenyl)-2,3,5,8-tetrahydro-[1,2,4]triazolo[4,3-a]pyrimidin-5-yl]-phenyl}-ethyl)-diethyl-methyl-ammonium forma]",> 7.70
6,"COC(=O)C1=C(C)N(c2cccc(C(F)(F)F)c2)c2n[nH]c(=O)n2[C@@H]1c1ccc(C#N)cc1CC[N+](C)(C)CC1CC1 [Example 83, (2-{5-Cyano-2-[(R)-6-methoxycarbonyl-7-methyl-3-oxo-8-(3-trifluoromethyl-phenyl)-2,3,5,8-tetrahydro-[1,2,4]triazolo[4,3-a]pyrimidin-5-yl]-phenyl}-ethyl)-cyclopropylmethyl-dimethyl-ammonium formate]",> 7.70
7,"COC(=O)C1=C(C)N(c2cccc(C(F)(F)F)c2)c2n[nH]c(=O)n2[C@@H]1c1ccc(C#N)cc1CC[N+]12CCC(CC1)CC2 [Example 84, 1-(2-{5-Cyano-2-[(R)-6-methoxycarbonyl-7-methyl-3-oxo-8-(3-trifluoromethyl-phenyl)-2,3,5,8-tetrahydro-[1,2,4]triazolo[4,3-a]pyrimidin-5-yl]-phenyl}-ethyl)-1-azonia-bicyclo[2.2.2] octane formate]",> 7.70
8,"COC(=O)C1=C(C)N(c2cccc(C(F)(F)F)c2)c2n[nH]c(=O)n2[C@@H]1c1ccc(C#N)cc1CC[n+]1cccc(CO)c1 [Example 85, 1-(2-{5-Cyano-2-[(R)-6-methoxycarbonyl-7-methyl-3-oxo-8-(3-trifluoromethyl-phenyl)-2,3,5,8-tetrahydro-[1,2,4]triazolo[4,3-a]pyrimidin-5-yl]-phenyl}-ethyl)-3-hydroxymethyl-pyridinium formate]",> 7.70
9,"COC(=O)C1=C(C)N(c2cccc(C(F)(F)F)c2)c2n[nH]c(=O)n2[C@@H]1c1ccc(C#N)cc1CC[n+]1cccc(C)c1 [Example 86, 1-(2-{5-Cyano-2-[(R)-6-methoxycarbonyl-7-methyl-3-oxo-8-(3-trifluoromethyl-phenyl)-2,3,5,8-tetrahydro-[1,2,4]triazolo[4,3-a]pyrimidin-5-yl]-phenyl}-ethyl)-3-methyl-pyridinium formate]",> 7.70
10,"COC(=O)C1=C(C)N(c2cccc(C(F)(F)F)c2)c2n[nH]c(=O)n2[C@@H]1c1ccc(C#N)cc1C[N+](C)(C)CC1CCC1 [Example 87, {5-Cyano-2-[(R)-6-methoxycarbonyl-7-methyl-3-oxo-8-(3-trifluoromethyl-phenyl)-2,3,5,8-tetrahydro-[1,2,4]triazolo[4,3-a]pyrimidin-5-yl]-benzyl}-cyclobutylmethyl-dimethyl-ammonium formate]",> 7.70
11,"COC(=O)C1=C(C)N(c2cccc(C(F)(F)F)c2)c2n[nH]c(=O)n2[C@@H]1c1ccc(C#N)cc1C[N+](C)(C)CC1CCOCC1 [Example 88, {5-Cyano-2-[(R)-6-methoxycarbonyl-7-methyl-3-oxo-8-(3-trifluoromethyl-phenyl)-2,3,5,8-tetrahydro-[1,2,4]triazolo[4,3-a]pyrimidin-5-yl]-benzyl}-dimethyl-(tetrahydro-pyran-4-ylmethyl)-ammonium formate]",> 7.70
12,"COCC[N+](C)(C)Cc1cc(C#N)ccc1[C@@H]1C(C(=O)OC)=C(C)N(c2cccc(C(F)(F)F)c2)c2n[nH]c(=O)n21 [Example 89, {{5-Cyano-2-[(R)-6-methoxycarbonyl-7-methyl-3-oxo-8-(3-trifluoromethyl-phenyl)-2,3,5,8-tetrahydro-[1,2,4]triazolo[4,3-a]pyrimidin-5-yl]-benzyl}-(2-methoxy-ethyl)-dimethyl-ammonium formate]",> 7.70
13,"COC(=O)C1=C(C)N(c2cccc(C(F)(F)F)c2)c2n[nH]c(=O)n2[C@@H]1c1ccc(C#N)cc1C[N+](C)(C)CC1CC1 [Example 90, {5-Cyano-2-[(R)-6-methoxycarbonyl-7-methyl-3-oxo-8-(3-trifluoromethyl-phenyl)-2,3,5,8-tetrahydro-[1,2,4]triazolo[4,3-a]pyrimidin-5-yl]-benzyl}-cyclopropyl-methyl-dimethyl-ammonium formate]",> 7.70
14,"COC(=O)C1=C(C)N(c2cccc(C(F)(F)F)c2)c2n[nH]c(=O)n2[C@@H]1c1ccc(C#N)cc1C[n+]1cccc(Cl)c1 [Example 91, 3-Chloro-1-{5-cyano-2-[(R)-6-methoxy-carbonyl-7-methyl-3-oxo-8-(3-trifluoromethyl-phenyl)-2,3,5,8-tetrahydro-[1,2,4]triazolo[4,3-a]pyrimidin-5-yl]-benzyl}-pyridinium formate]",> 7.70
15,"COC(=O)C1=C(C)N(c2cccc(C(F)(F)F)c2)c2n[nH]c(=O)n2[C@@H]1c1ccc(C#N)cc1C[N+](C)(C)CCO [Example 92, {5-Cyano-2-[(R)-6-methoxycarbonyl-7-methyl-3-oxo-8-(3-trifluoromethyl-phenyl)-2,3,5,8-tetrahydro-[1,2,4]triazolo[4,3-a]pyrimidin-5-yl]-benzyl}-(2-hydroxy-ethyl)-dimethyl-ammonium formate]",> 7.70
16,"COC(=O)C1=C(C)N(c2cccc(C(F)(F)F)c2)c2n[nH]c(=O)n2[C@@H]1c1ccc(C#N)cc1C[n+]1ccc(OC)cc1 [Example 93, 1-{5-Cyano-2-[(R)-6-methoxycarbonyl-7-methyl-3-oxo-8-(3-trifluoromethyl-phenyl)-2,3,5,8-tetrahydro-[1,2,4]triazolo[4,3-a]pyrimidin-5-yl]-benzyl}-4-methoxy-pyridinium formate]",> 7.70
17,"COC(=O)C1=C(C)N(c2cccc(C(F)(F)F)c2)c2n[nH]c(=O)n2[C@@H]1c1ccc(C#N)cc1C[n+]1cccc(CO)c1 [Example 94, 1-{5-Cyano-2-[(R)-6-methoxycarbonyl-7-methyl-3-oxo-8-(3-trifluoromethyl-phenyl)-2,3,5,8-tetrahydro-[1,2,4]triazolo[4,3-a]pyrimidin-5-yl]-benzyl}-3-hydroxymethyl-pyridinium formate]",> 7.70
18,"COC(=O)C1=C(C)N(c2cccc(C(F)(F)F)c2)c2n[nH]c(=O)n2C1c1ccc(C#N)cc1C[N+]1(C)CCC(CO)CC1 [Example 95, {1-{5-Cyano-2-[(R)-6-methoxycarbonyl-7-methyl-3-oxo-8-(3-trifluoromethyl-phenyl)-2,3,5,8-tetrahydro-[1,2,4]triazolo[4,3-a]pyrimidin-5-yl]-benzyl}-4-hydroxymethyl-1-methyl-piperidinium formate]",> 7.70
19,"CCOC(=O)C[N+](C)(C)Cc1cc(C#N)ccc1[C@@H]1C(C(=O)OC)=C(C)N(c2cccc(C(F)(F)F)c2)c2n[nH]c(=O)n21 [Example 96, {5-Cyano-2-[(R)-6-methoxycarbonyl-7-methyl-3-oxo-8-(3-trifluoromethyl-phenyl)-2,3,5,8-tetrahydro-[1,2,4]triazolo[4,3-a]pyrimidin-5-yl]-benzyl}-ethoxycarbonyl-methyl-dimethyl-ammonium formate]",> 7.70
20,"COC(=O)C1=C(C)N(c2cccc(C(F)(F)F)c2)c2n[nH]c(=O)n2[C@@H]1c1ccc(C#N)cc1C[N+](C)(C)CC1CCS(=O)(=O)CC1 [Example 97, {5-Cyano-2-[(R)-6-methoxycarbonyl-7-methyl-3-oxo-8-(3-trifluoromethyl-phenyl)-2,3,5,8-tetrahydro-[1,2,4]triazolo[4,3-a]pyrimidin-5-yl]-benzyl}-(1,1-dioxo-hexahydro-1lambda*6*- thiopyran-4-ylmethyl)-dimethyl-ammonium formate]",> 7.70
21,"COC(=O)C1=C(C)N(c2cccc(C(F)(F)F)c2)c2n[nH]c(=O)n2[C@@H]1c1ccc(C#N)cc1C[N+]1(C)CC(O)C(O)C1 (stereo partly drawn) [Example 98, 1-{5-Cyano-2-[(R)-6-methoxycarbonyl-7-methyl-3-oxo-8-(3-trifluoromethyl-phenyl)-2,3,5,8-tetrahydro-[1,2,4]triazolo[4,3-a]pyrimidin-5-yl]-benzyl}-3,4-dihydroxy-1-methyl-pyrrolidinium formate]",> 7.70
